{"source": "patent US20140113306A1", "about": "“DIAGNOSTIC AND SCREENING METHODS FOR INFLAMMATION” (Rutgers, The State University of New Jersey, priority 2012, published 2014)", "system": "human leukocytes", "test": "Ex vivo whole blood pretreated with inhibitors, then endotoxin; leukocyte Western blotting and ATP analyses", "format": "cell-based", "procedure": "(A) Blood samples were treated with endotoxin (LPS; […]) for the indicated time. (B-D) Blood samples were untreated (control), treated for 2 hours with DMSO (vehicle), or the specified inhibitors prior to the addition of endotoxin (10 ng/ml). The inhibitors tested included: LY294002 (LY), Rapamycin (RAPA), YC-1, acriflavine (ACF), metformin (Met) and SRT1720 (SRT). Leukocytes were isolated at the indicated time post-endotoxin treatment and lysed. Lysates were subjected to Western blotting analyses, and where shown, ATP analyses. Details are provided in the supplement. (E) Proposed model for endotoxin-induced metabolic derangement in human leukocytes.\nFIG. 7. provides the Toll-like receptor 4 signaling pathway in human leukocytes and the antagonistic effect of insulin. (A) Blood samples were treated with endotoxin (10 ng/ml) for the indicated time. (B) Blood samples were untreated (UN), or treated with DMSO (vehicle; 0.05%; 2 hours), LY294002 (LY; 10 μM; 30 min), rapamycin (RAPA; 100 nM, 2 ‘hours), YC-1 (30 μM; 30 min), or acriflavine (ACF; 5 μM; 2 hours). The samples shown in lanes 3-8 were subsequently treated with endotoxin (10 ng/ml) for 2 hours. (C) Blood samples were untreated (UN; lane 1), treated with endotoxin (10 ng/ml; lane 2) for 2 hours, or with insulin (1 unit/ml) for 2 hours (lane 3) or 1 hour (lane 4). The samples shown in lanes 5-9 were treated with endotoxin (10 ng/ml) plus insulin at the indicated concentration (1-0.05 unit/ml) for 2 hours, (D) Blood samples were treated with insulin (0.1 unit/ml) plus endotoxin (10ng/ml) for the indicated time, or with endotoxin alone (Endo, 10 ng/ml) for 2 hours. Leukocytes were isolated, lysed, and analyzed as described in FIG. 5. (E) Model describing the pattern of signaling indicators detected in leukocytes treated with endotoxin as compared to insulin.\nTo examine the signaling events linking endotoxin induced responses ex vivo with the altered metabolic/bioenergetic profile, the inventors examined the effect of pharmacological inhibitors implicated in the regulation of HIF-1α expression in other model systems. […] Furthermore, they indicate that distinct PI-3K effectors regulate HIF-1α stabilization and AMPKα degradation.\nTo examine the effect of metformin on human leukocytes bioenergetics, whole blood samples were pretreated with metformin ex vivo prior to the addition of endotoxin.\nEndotoxin (lipopolysaccharide from Escherichia coli 0111B4, Sigma, 10 ng/ml). Insulin (Humalog Mix 50/50; Lilly) was used at the indicated concentrations (0.05-1 unit/ml), Polymyxin (Invivogen, 50 μg/ml), CLI-095 (Invivogen; 3 μM), LY294002 (Cayman Chemical; 10 μM), Rapamycin (Tocris Bioscience; 100 nM), YC-1 (Sigma; 30 μM), Acriflavine (ACF; Sigma; 5 μM)\nHuman Subjects were enrolled in the study following the Institutional Review Board of Rutgers Robert Wood Johnson Medical School approval. Written informed consent was obtained from all participates prior to inclusion in the study. Blood was drawn into EDTA-containing tubes. To isolate leukocytes, lysis buffer (bicarbonate-buffered ammonium chloride solution, 0.826% NH4Cl, 0.1% KHCO3, 0.0037% Na4EDTA in H2O) was added at a ratio of 20:1 (lysis buffer/blood). Once the erythrocytes lysed, the samples were centrifuged for […] at 400×g. The leukocyte pellet was washed once with phosphate-buffered saline. The pellet was suspended in RIPA buffer (1% Triton X-100, 1% deoxycholic acid, 10 mM Tris-HCl, pH 7.2, 158 mM NaCl, 0.1% SDS, and 1 mM PMSF and complete protease inhibitor mixture (Roche Applied Science)). Lysates containing equal protein amounts were analyzed by immunoblotting. Where indicated, endotoxin, insulin, and/or inhibitors were added to the whole blood samples prior to leukocyte isolation.", "key": {"[1]": {"conditions": "whole blood treated 2 hours with inhibitor prior to endotoxin 10 ng/ml"}}, "note": "“Also recorded” adds a separate entry of the source. At least one compound was matched to its structure with a doubt left."}
{"smiles": "O=c1cc(N2CCOCC2)oc2c(-c3ccccc3)cccc12", "note": "[LY294002]", "values": [{"measurement": "autophagy in endotoxin-treated leukocytes", "setting": "FIG. 7B: LY 10 μM 30 min, RAPA 100 nM 2 hours, YC-1 30 μM 30 min, ACF 5 μM 2 hours, then endotoxin 10 ng/ml 2 hours", "result": "blocked"}, {"measurement": "HIF-1α expression in endotoxin-treated leukocytes", "setting": "FIG. 7B: LY 10 μM 30 min, RAPA 100 nM 2 hours, then endotoxin 10 ng/ml 2 hours", "result": "blocked"}, {"measurement": "endotoxin-induced AMPKα degradation (change in AMPKα expression)", "setting": "[1]", "result": "inhibited; also recorded: prevented"}, {"measurement": "endotoxin-induced HIF-1α expression", "setting": "[1]", "result": "inhibited"}, {"measurement": "endotoxin-induced autophagy (LC3-I/LC3-II)", "setting": "[1]", "result": "inhibited"}, {"measurement": "endotoxin-induced decline in ATP levels", "setting": "[1]", "result": "inhibited"}]}
